# Data taken from PubChem BioAssay AID2685 (National Center for Advancing Translational Sciences (NCATS), 2010).
# The other results are listed elsewhere or left out. These are further read-outs of the screen, such as a control signal, another cell line or another target. No call is given for them. Compounds called inactive in the main read-out are mostly missing here. The note in brackets gives the kind of curve behind each potency; many fits are weak.
# Assay: qHTS Assay for Lipid Storage Modulators in Drosophila S3 Cells;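 as to cell number change: cells counted by Cell Tracker Red CMTPX staining in the red channel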
# Settings: BODIPY lipid droplet fluorescence, 18-24 h; for cell number change: measured here: cell count max response, cells fed with added oleic acid
# Outline: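 Laser-scanning cytometry quantifies lipid droplet accumulation (500–530 nm total intensity; droplet/cell object ratio) in oleic acid-fed (400 uM added) Drosophila S3 cells treated with a concentration series. 20 uM Triacsin C defined 100% inhibition.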
# [1] = measured here: cell number channel AC50, cells fed with added oleic acid
# [2] = measured here: lipid fluorescence (Fed channel) AC50, cells fed with added oleic acid
smiles,measurement,setting,value
COc1ccccc1CNC(=O)c1ccc(OC(C)C)cc1,cell number change,,13.6%
same,AC50,[1],"0.103 µM [rising, full curve, poor fit]"
CCCCc1c(O)nc(SCCC(=O)O)[nH]c1=O,cell number change,,-8.27%
same,AC50,[2],"18.4 µM [falling, partial curve]"
CCOC(=O)Cc1c(C)c2c(C)[nH]nc2oc1=O,cell number change,,15.7%
Cc1ccccc1NC(=O)Cc1nc(COC(=O)c2cccc(C)c2O)cs1,cell number change,,1.52%
same,AC50,[2],"29.1 µM [falling, single point]"
CCOC(=O)c1c(C)n(CC(COC(C)=O)OC(C)=O)c2ccc(OC(C)=O)cc12 (centres undefined),cell number change,,46.8%
same,AC50,[1],"0.259 µM [rising, full curve]"
same,AC50,[2],"0.82 µM [rising, partial curve]"
CCCCc1cc(=O)oc2c(C)c(OCC(=O)NCc3ccccn3)ccc12,cell number change,,-8.06%
same,AC50,[2],"0.58 µM [rising, single point]"
O=C(Nc1ccc(Br)cc1)NC1CCCCCCC1,cell number change,,-56.9%
same,AC50,[1],"29.1 µM [falling, single point]"
same,AC50,[2],"29.1 µM [falling, single point]"
OCCCNC(=S)Nc1ccc2nccnc2c1,cell number change,,4.7%
same,AC50,[2],"6.51 µM [falling, single point]"
Cc1cc(C)c2nc(N3CCC(C(=O)NCCN4CCOCC4)CC3)sc2c1,cell number change,,2.69%
same,AC50,[2],"6.51 µM [rising, single point]"
N#CC1=C(N)Oc2c(oc(CO)cc2=O)C1c1cccs1 (centres undefined),cell number change,,-0.068%
same,AC50,[2],"0.731 µM [falling, full curve]"
CCOC(=O)c1cc2c(s1)-c1c(C)cccc1OC2,cell number change,,4.92%
same,AC50,[2],"32.6 µM [rising, single point]"
COc1ccccc1NC(=O)COC(=O)C1CC2C=CC1C2 (centres undefined),AC50,[1],"1.03 µM [rising, partial curve]"
CC(=O)N1CCN(C(=O)CCc2nc3sc4c(c3c(=O)[nH]2)CCCC4)CC1,cell number change,,-12.8%
same,AC50,[1],"6.51 µM [falling, single point]"
COc1ccc(CCNC(=O)c2ccc3c(c2)NC(=O)CS3)cc1OC,cell number change,,7.25%
same,AC50,[2],"20.6 µM [rising, single point]"
CN(c1ccccc1)S(=O)(=O)c1ccc(NC(=O)c2nc(S(C)(=O)=O)ncc2Cl)cc1,cell number change,,68.1%
same,AC50,[1],"13 µM [rising, partial curve]"
CCN1CCN(CCNC(=O)c2ccc3c(c2)N(Cc2ccc(F)cc2)C(=O)c2ccccc2S3=O)CC1 (centres undefined),cell number change,,-10.8%
same,AC50,[2],"29.1 µM [rising, single point]"
N#Cc1cnn(-c2ncnc3sc4c(c23)CCCC4)c1N,cell number change,,63.5%
same,AC50,[1],"29.1 µM [rising, single point]"
CC(=O)Nc1ccc(N2N=C(C)C(N=Nc3ccccc3)C2=O)cc1 (centres undefined),cell number change,,3.67%
same,AC50,[2],"0.731 µM [rising, single point]"
COc1ccc2[nH]c(=O)c(C(c3nnnn3CC3CCCO3)N3CCc4ccccc4C3)cc2c1 (centres undefined),cell number change,,34.8%
same,AC50,[1],"4.61 µM [rising, full curve, poor fit]"
NC(=O)NOCc1ccc(Cl)cc1Cl,cell number change,,0.583%
same,AC50,[1],"0.103 µM [rising, full curve, poor fit]"
same,AC50,[2],"0.116 µM [rising, full curve, poor fit]"
CN1/C(=C\C(=O)COC(=O)CNC(=O)c2ccccc2F)C(C)(C)c2ccccc21,cell number change,,6.4%
same,AC50,[2],"2.91 µM [rising, single point]"
CC1(C)CC(=O)C=C(NC2CC(C)(C)NC(C)(C)C2)C1,cell number change,,-17.6%
same,AC50,[2],"0.259 µM [falling, full curve, poor fit]"
O=C(c1ccco1)c1nnn(Cc2ccccc2)c1-c1ccccc1,cell number change,,-11.5%
same,AC50,[2],"14.6 µM [rising, partial curve]"
CC(=O)Nc1ccc(S(=O)(=O)N2CCN(C(C)CCc3ccccc3)CC2)cc1 (centres undefined),cell number change,,49.5%
same,AC50,[1],"29.1 µM [rising, single point]"
O=S1(=O)[C@H]2C[C@@H]3C=C[C@@]2(CN1Cc1cccc(Cl)c1)O3,cell number change,,-0.299%
same,AC50,[2],"29.1 µM [falling, single point]"
O=[N+]([O-])c1cc(S(=O)(=O)Nc2ccccc2)ccc1N1CCN(c2ccccc2)CC1,cell number change,,-35.8%
same,AC50,[1],"29.1 µM [falling, single point]"
same,AC50,[2],"18.4 µM [falling, single point]"
Cc1ccccc1NC(=S)NC(NC(=O)c1ccccc1C)C(Cl)(Cl)Cl (centres undefined),cell number change,,27.2%
same,AC50,[1],"0.00517 µM [rising, full curve, poor fit]"
same,AC50,[2],"6.51 µM [rising, single point]"
CC1CCN(S(=O)(=O)Cc2ccccc2Cl)CC1,cell number change,,-4.39%
same,AC50,[1],"6.51 µM [falling, single point]"
O=C(CSc1nc(C2CCCCC2)nc2ccccc12)NCc1ccco1,cell number change,,-16.8%
same,AC50,[2],"20.6 µM [falling, single point]"
CCOc1ccccc1NC(=O)c1cccc(S(=O)(=O)N(Cc2ccccc2)c2ccccc2OC)c1,cell number change,,0.103%
same,AC50,[2],"0.231 µM [rising, full curve, poor fit]"
Cc1nn(Cc2ccccc2)c(Cl)c1/C=C/C(=O)OCC(=O)NC(C)C(C)C (centres undefined),cell number change,,74.5%
same,AC50,[1],"29.1 µM [rising, single point]"
COc1ccc(-c2noc(CNC(=O)C(C)Oc3ccccc3)n2)cc1 (centres undefined),cell number change,,24.3%
same,AC50,[2],"29.1 µM [rising, single point]"
O=C(CSc1nc2ccccc2c(=O)n1Cc1ccco1)N1CCN(c2ccccc2)CC1,cell number change,,4.25%
same,AC50,[2],"0.0164 µM [rising, full curve, poor fit]"
O=C1Nc2ccccc2Oc2cc(Oc3ccccc3)ccc21,cell number change,,-0.906%
same,AC50,[1],"0.00517 µM [falling, full curve, poor fit]"
CN=c1scc(-c2ccc([N+](=O)[O-])cc2)n1/N=C/c1ccco1,cell number change,,-21.4%
same,AC50,[1],"4.11 µM [falling, single point]"
same,AC50,[2],"11.6 µM [falling, partial curve]"
CCOC(=O)CC(=O)NC(C)(C)CCCCC(C)(C)NC(=O)CC(=O)OCC,cell number change,,7.24%
same,AC50,[2],"0.116 µM [falling, full curve, poor fit]"
CCn1cc(C(=O)N[C@H](C(=O)NC(C)(C)CO)C(C)C)c(=O)c2cc3c(cc21)OCO3,cell number change,,24.9%
O=C(NNC(=O)C12CC3CC(CC(Cl)(C3)C1)C2)c1csc(N2CCOCC2)n1,cell number change,,-8.04%
same,AC50,[2],"3.66 µM [rising, single point]"
Cc1ccc(Nc2nc(NCc3ccco3)c3ccccc3n2)cc1,cell number change,,-82.3%
same,AC50,[1],"1.84 µM [falling, partial curve]"
same,AC50,[2],"1.84 µM [falling, partial curve]"
Cc1ccccc1OCC(O)Cn1c2ccccc2c2ccccc21 (centres undefined),cell number change,,-25.5%
CCOC(=O)C1(c2csc(N)n2)COC(=O)C1 (centres undefined),cell number change,,-38.6%
same,AC50,[1],"29.1 µM [falling, single point]"
same,AC50,[2],"6.51 µM [falling, single point]"
CN1CCN(C(=S)c2cn(Cc3ccc(Br)cc3)c3ccccc23)CC1,AC50,[1],"0.146 µM [rising, full curve, poor fit]"
COc1ccc(S(=O)(=O)NCC(=O)N(CC(=O)NCc2ccccc2)Cc2ccco2)cc1,cell number change,,-14.3%
same,AC50,[2],"6.51 µM [rising, partial curve]"
CSc1ccc(N2C(=O)NC3(CCCCC3)C2=O)cc1,cell number change,,88.4%
same,AC50,[1],"29.1 µM [rising, single point]"
Cc1ccn2c(CNC(C)c3cn(C)nc3C)c(C(=O)N3CCCCCC3)nc2c1 (centres undefined),cell number change,,-10.8%
same,AC50,[2],"2.31 µM [falling, partial curve, poor fit]"
CCCC(=O)NCCc1nc2cc([N+](=O)[O-])ccc2n1C,cell number change,,2.77%
O=[N+]([O-])c1ccc(/C=N/n2c(COc3ccccc3)n[nH]c2=S)cc1,cell number change,,-74.3%
O=C(O)c1ccccc1NS(=O)(=O)c1cccc(N=Nc2c(O)[nH]c(=S)[nH]c2=O)c1,cell number change,,-23%
CCn1cc(/C=C(\NC(=O)c2ccccc2F)C(=O)NCCN2CCOCC2)c2ccccc21,AC50,[2],"6.51 µM [rising, single point]"
COc1ccc(C(C#N)CCC2OCCO2)cc1OC (centres undefined),cell number change,,11.6%
same,AC50,[2],"0.082 µM [falling, single point]"
CN(Cc1cccs1)C(=O)Cc1csc(-c2ccccc2)n1,AC50,[2],"6.51 µM [rising, single point]"
O=C(NCCCN=C1NS(=O)(=O)c2ccccc21)c1ccc(Cl)cc1,cell number change,,3.48%
same,AC50,[2],"6.51 µM [falling, single point]"
CCc1sc(C(=O)N(CCCOC)c2c(N)n(CC(C)C)c(=O)[nH]c2=O)cc1C,cell number change,,0.427%
same,AC50,[2],"1.84 µM [falling, partial curve]"
CC(CC(=O)N1CCc2ccccc21)S(=O)(=O)c1ccc2c(c1)NC(=O)CO2 (centres undefined),cell number change,,-14.3%
same,AC50,[1],"3.66 µM [rising, single point]"
same,AC50,[2],"6.51 µM [rising, single point]"
O=C(Cc1ccc(Cl)cc1)N/N=C/c1c(Cl)cccc1Cl,cell number change,,30.1%
same,AC50,[1],"5.8 µM [rising, full curve, poor fit]"
CCC(CNc1cc(OC)cc2cccnc12)NC1CCCCC1 (centres undefined),cell number change,,8.6%
same,AC50,[2],"16.4 µM [falling, single point]"
CC1Cc2ccccc2N1CC(=O)Nc1cccc(S(N)(=O)=O)c1 (centres undefined),cell number change,,5.13%
Cc1ccc(S(=O)(=O)NCCC(=O)N(C)Cc2cccs2)cc1,cell number change,,15%
same,AC50,[2],"1.3 µM [falling, full curve, poor fit]"
CC1(C)Cc2c(sc(NC(=O)c3ccc(C(=O)c4ccccc4)cc3)c2C(N)=O)C(C)(C)N1,cell number change,,-18.8%
same,AC50,[2],"29.1 µM [falling, single point]"
Cc1ccc(C(=O)N2CCN(S(=O)(=O)c3ccc(C)c([N+](=O)[O-])c3)C2)cc1,cell number change,,25.3%
same,AC50,[1],"0.231 µM [rising, full curve, poor fit]"
same,AC50,[2],"0.103 µM [rising, full curve]"

# Four entries from above, bar-delimited.
smiles | measurement | setting | value
O=C(CSc1nc2ccccc2c(=O)n1Cc1ccco1)N1CCN(c2ccccc2)CC1 | cell number change |  | 4.25%
same | AC50 | [2] | 0.0164 µM [rising, full curve, poor fit]
O=C1Nc2ccccc2Oc2cc(Oc3ccccc3)ccc21 | cell number change |  | -0.906%
same | AC50 | [1] | 0.00517 µM [falling, full curve, poor fit]

# Some of the entries so far, with tabs:
smiles	measurement	setting	value
NC(=O)NOCc1ccc(Cl)cc1Cl	AC50	[1]	0.103 µM [rising, full curve, poor fit]
O=C(CSc1nc(C2CCCCC2)nc2ccccc12)NCc1ccco1	cell number change		-16.8%
CN=c1scc(-c2ccc([N+](=O)[O-])cc2)n1/N=C/c1ccco1	cell number change		-21.4%
